From paper PMC10707033
These are yes or no findings as the source states them, for the method shown. Some entries that bind do so weakly or less than the wild type.

By UniProt entry, the sequences of proteins in these tests, tags left out. Residues count along the entry.
UniProt P36544, residues 23-502: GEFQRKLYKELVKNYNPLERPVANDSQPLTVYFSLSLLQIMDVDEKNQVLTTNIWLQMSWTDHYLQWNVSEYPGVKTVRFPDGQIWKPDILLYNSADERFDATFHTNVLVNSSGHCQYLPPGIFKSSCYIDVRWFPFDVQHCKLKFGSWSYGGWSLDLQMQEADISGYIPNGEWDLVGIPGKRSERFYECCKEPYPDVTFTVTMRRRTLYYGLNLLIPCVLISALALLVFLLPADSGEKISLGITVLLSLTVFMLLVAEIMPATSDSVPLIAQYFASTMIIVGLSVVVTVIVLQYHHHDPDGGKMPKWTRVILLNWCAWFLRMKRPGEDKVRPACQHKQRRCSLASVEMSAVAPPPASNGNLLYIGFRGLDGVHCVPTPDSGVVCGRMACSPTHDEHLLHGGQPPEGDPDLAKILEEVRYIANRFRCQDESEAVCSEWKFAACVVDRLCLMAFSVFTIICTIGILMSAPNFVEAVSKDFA
UniProt P60615, residues 22-95: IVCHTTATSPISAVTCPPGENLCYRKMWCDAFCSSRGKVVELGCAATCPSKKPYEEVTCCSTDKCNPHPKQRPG

Target: human neuronal α7 nicotinic acetylcholine receptor (human) (UniProt P36544)
Experiment: radioligand binding; only the binder purified

Q: “[125I]-labeled α-bungarotoxin (from UniProt P60615 22-95)” was tested. Which binding did it give?
A: binds
